In paper doi:10.1101/2021.09.30.462231:
No constants are given. Whether binding was seen depends on the method and setting. In cells and extracts the contact can be indirect. Where a sequence is shown, tags or fusion partners need not be part of it.

Biological target: T1, GST-Sec23 (S. cerevisiae) (UniProt P15303)
T1 sequence: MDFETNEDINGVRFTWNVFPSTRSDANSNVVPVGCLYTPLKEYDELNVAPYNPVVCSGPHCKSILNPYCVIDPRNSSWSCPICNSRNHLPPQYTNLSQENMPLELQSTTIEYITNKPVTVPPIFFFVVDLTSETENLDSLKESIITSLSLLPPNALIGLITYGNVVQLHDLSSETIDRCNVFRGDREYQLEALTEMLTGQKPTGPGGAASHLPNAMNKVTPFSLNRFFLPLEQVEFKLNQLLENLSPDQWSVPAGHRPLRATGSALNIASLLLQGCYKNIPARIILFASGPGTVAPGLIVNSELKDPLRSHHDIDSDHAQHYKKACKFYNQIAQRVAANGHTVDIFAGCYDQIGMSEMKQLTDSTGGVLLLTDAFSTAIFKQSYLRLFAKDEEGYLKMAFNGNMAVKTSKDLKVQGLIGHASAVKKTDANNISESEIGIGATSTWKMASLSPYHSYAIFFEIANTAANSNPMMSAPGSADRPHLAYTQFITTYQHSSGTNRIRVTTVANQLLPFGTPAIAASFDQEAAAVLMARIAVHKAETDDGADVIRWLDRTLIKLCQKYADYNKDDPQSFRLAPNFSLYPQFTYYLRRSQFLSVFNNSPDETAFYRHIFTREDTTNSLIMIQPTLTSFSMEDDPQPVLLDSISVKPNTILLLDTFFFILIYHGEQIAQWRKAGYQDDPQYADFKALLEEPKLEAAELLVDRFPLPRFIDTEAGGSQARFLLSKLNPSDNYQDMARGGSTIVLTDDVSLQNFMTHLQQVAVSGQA
Assay: pull-down

binding: no binding
Substance: Grh1 with deletion of the C-terminal IDR (S. cerevisiae) (domain or fragment)
